Reference: PubChem BioAssay AID686943 (Drosophila RNAi Screening Center, 2013)

- Screen: 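Fly genes whose loss alters ERK activation after insulin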 (primary screen)
- System: Drosophila S2R+ haemocyte-like cells expressing YFP-tagged ERK (Rolled)
- Reagents: long dsRNA against Drosophila genes
- Conditions: insulin stimulation versus unstimulated cells; dose and duration not given
- Measured: 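Antibody staining for doubly phosphorylated ERK divided by ERK-YFP signal, as plate z-scores, in insulin-treated and untreated cells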
- Direction: replicate 1, z-score of dpERK with insulin: higher = more active ERK per ERK-YFP after insulin
The screen tested about 23,000 reagents; below is a random part of those with a known target gene and a result. 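Extra replicates exist only for a retested subset of genes; insulin dose and duration not given; both raised and lowered dpERK matter.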 Further read-outs or replicates are left out here. Not stated in the record: the amount of reagent, the time to read-out.

replicate 1, z-score of dpERK with insulin, by gene knocked down and reagent
Efhc1.2: DRSC06027 0.35
NANS: DRSC15743 -0.22
Dap160: DRSC01834 -1.05; DRSC03313 -0.31
Or85d: DRSC16767 0.78
CG32773 (retired record): DRSC17330 -0.9
Cpr47Eg: DRSC07330 -0.8
stv: DRSC09796 0.07; DRSC10111 0.01
Tbce: DRSC04897 -0.92
CG14024: DRSC00868 -0.13; DRSC02354 -0.25
Lam: DRSC03359 -1.64
GPHR: DRSC07075 -0.34
Gad1: DRSC08661 -0.78
ind: DRSC11355 -4.81
CG7879: DRSC08600 -0.27
CG16978: DRSC02553 -0.33
Lip3: DRSC16727 0.2
Or1a: DRSC18689 0
CG14634: DRSC17944 -1.14
Tango4: DRSC19786 1.3
CG15047: DRSC19623 1.12; DRSC21443 0.52
CG1674: DRSC17107 0.82; DRSC17142 0.27
AP-1gamma: DRSC18433 0.33
sn: DRSC18834 0.24
Lipt1: DRSC05600 -0.46
Orc5: DRSC03390 0.34
CG5916: DRSC15917 -0.5
Sirup: DRSC03031 0.86
wapl: DRSC18851 1.5
Lip1: DRSC03364 -0.71
CG9313: DRSC04540 0.99
CG10298: DRSC12522 0.5
Sym: DRSC12301 0.19
rumpel: DRSC18436 -0.24
Larp4B: DRSC08192 -0.66
CG5819: DRSC04520 1.01
CG43125: DRSC13866 -0.28
CG43149: DRSC07859 0.65
FLASH: DRSC06872 -0.36
RpL5: DRSC03801 -2.24
Cyp4p1: DRSC07372 0.98
Sec61beta: DRSC07548 0.26; DRSC21512 -0.13
CG42591: DRSC08905 0.3
GatB: DRSC15807 0.08
CNMa: DRSC08405 1.28
Or92a: DRSC16771 0.1
Jig: DRSC14974 0.4
CG31269: DRSC15744 -0.26
CG9171: DRSC03152 -0.14; DRSC21813 -3.31
CG32161: DRSC22128 -0.61
CG10081: DRSC05962 0.21
